Article doi:10.1101/2021.02.09.430424
No constants are given. Whether binding was seen depends on the method and setting. In cells and extracts the contact can be indirect. These calls come from enrichment with a bait or labelling near it, and not all partners need be listed.

Amino acid sequences for entries named in this document (tags omitted).
UniProt O89110: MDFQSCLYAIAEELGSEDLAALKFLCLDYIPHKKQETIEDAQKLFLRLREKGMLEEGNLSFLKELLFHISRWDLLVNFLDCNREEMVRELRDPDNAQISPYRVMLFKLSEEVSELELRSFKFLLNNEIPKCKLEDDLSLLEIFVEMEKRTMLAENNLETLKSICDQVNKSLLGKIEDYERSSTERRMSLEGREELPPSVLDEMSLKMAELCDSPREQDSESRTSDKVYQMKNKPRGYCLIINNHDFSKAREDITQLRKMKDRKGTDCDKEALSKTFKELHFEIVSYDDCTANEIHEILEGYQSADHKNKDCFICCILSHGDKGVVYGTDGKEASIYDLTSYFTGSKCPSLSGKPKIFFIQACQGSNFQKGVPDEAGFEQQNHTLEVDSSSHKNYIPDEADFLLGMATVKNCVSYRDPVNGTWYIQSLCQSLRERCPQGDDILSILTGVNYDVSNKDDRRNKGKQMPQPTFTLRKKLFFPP
UniProt Q9QZL0: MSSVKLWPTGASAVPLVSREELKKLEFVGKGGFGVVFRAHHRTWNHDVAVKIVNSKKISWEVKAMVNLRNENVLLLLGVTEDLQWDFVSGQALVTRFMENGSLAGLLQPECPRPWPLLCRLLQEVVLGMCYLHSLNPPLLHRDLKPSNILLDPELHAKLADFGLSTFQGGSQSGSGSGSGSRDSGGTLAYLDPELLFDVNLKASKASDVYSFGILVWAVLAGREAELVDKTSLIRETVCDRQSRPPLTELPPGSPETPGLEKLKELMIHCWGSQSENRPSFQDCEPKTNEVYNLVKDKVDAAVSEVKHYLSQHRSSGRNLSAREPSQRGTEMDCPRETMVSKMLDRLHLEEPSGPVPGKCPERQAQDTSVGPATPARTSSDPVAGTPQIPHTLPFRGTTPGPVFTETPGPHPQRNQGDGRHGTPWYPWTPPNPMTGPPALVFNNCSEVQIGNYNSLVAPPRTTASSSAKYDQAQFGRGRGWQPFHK

Each molecule was assayed against C-terminally 3x FLAG tagged murine caspase-8 (Dox-inducible construct) (mouse) (UniProt O89110) (assay: affinity purification with mass spectrometry).

| binding | Molecule |
| --- | --- |
| binds | RIPK3 (endogenous, mouse) (from UniProt Q9QZL0 1-486) |
| binds | A20 (endogenous, mouse) (protein, UniProt Q60769 1-775) MAEQLLPQALYLSNMRKAVKIRERTPEDIFKPTNGIIYHFKTMHRYTLEMFRTCQFCPQFREIIHKALIDRSVQASLESQKKLNWCREVRKLVALKTNGDGNCLMHAACQYMWGVQDTDLVLRKALCSTLKETDTRNFKFRWQLESLKSQEFVETGLCYDTRNWNDEWDNLVKMASADTPAARSGLQYNSLEEIHIFVLSNILRRPIIVISDKMLRSLESGSNFAPLKVGGIYLPLHWPAQECYRYPIVLGYDSQHFVPLVTLKDSGPELRAVPLVNRDRGRFEDLKVHFLTDPENEMKEKLLKEYLIVMEIPVQGWDHGTTHLINAAKLDEANLPKEINLVDDYFELVQHEYKKWQENSDQARRAAHAQNPLEPSTPQLSLMDIKCETPNCPFFMSVNTQPLCHECSERRQKNQSKLPKLNSKLGPEGLPGVGLGSSNWSPEETAGGPHSAPPTAPSLFLFSETTAMKCRSPGCPFTLNVQHNGFCERCHARQINASHTADPGKCQACLQDVTRTFNGICSTCFKRTTAEPSSSLTSSIPASCHQRSKSDPSQLIQSLTPHSCHRTGNVSPSGCLSQAARTPGDRAGTSKCRKAGCMYFGTPENKGFCTLCFIEYRENKQSVTASEKAGSPAPRFQNNVPCLGRECGTLGSTMFEGYCQKCFIEAQNQRFHEARRTEEQLRSSQHRDMPRTTQVASRLKCARASCKNILACRSEELCMECQHLSQRVGSVAHRGEPTPEEPPKQRCRAPACDHFGNAKCNGYCNECYQFKQMYG |
| binds | TRADD (endogenous, mouse) (protein, UniProt Q3U0V2 1-310) MAAGQNGHEEWVGSAYLFLESAVDKVILSEAYTDPKKKVAIYKALQTALSESGDSSDVLQILKIHCSDPQLIVQLRFCGRVLCGRFLQAYREGALRTALQRCMAPALAQEALRLQLELRAGAEQLDSWLTDEERCLNYILAQKPDRLRDEELAELEDELCKLTCDCTGQGGAIQVASAGSKFPVSSPTEEKPLPAACQTFLFHGQLVVNRPLTLQDQQTFARSVGLKWRRVGRSLQRNCRALRDPALDSLAYEYERDGLYEQAFQLLRRFMQAEGRRATLQRLVEALEENELTSLAEDLLGQAEPDGGLA |
| binds | tankyrase-1 (endogenous, mouse) (enzyme, UniProt Q6PFX9 1-1320) MAASRRSQHHHHHHQQQLQPAPGASAPPPPPPPPLSPGLAPGPTPASPTAGGLAPFASPRHGLALPEGDGSRDPPDRPRSPDPVDGAVCTVAAPAAVPAASAAVGVAPTPAGGGGGGGNNSASSASSPTSSSSSSPSSPGSSLAESPEAAGVGSTATLGAGAAGLGPGVPAVSGALRELLEACRNGDVSRVKRLVDAANVNAKDMAGRKSSPLHFAAGFGRKDVVEHLLQMGANVHARDDGGLIPLHNACSFGHAEVVSLLLCQGADPNARDNWNYTPLHEAAIKGKIDVCIVLLQHGADPNIRNTDGKSALDLADPSAKAVLTGEYKKDELLEAARSGNEEKLMALLTPLNVNCHASDGRKSTPLHLAAGYNRVRIVQLLLQHGADVHAKDKGGLVPLHNACSYGHYEVTELLLKHGACVNAMDLWQFTPLHEAASKNRVEVCSLLLSHGADPTLVNCHGKSAVDMAPTPELRERLTYEFKGHSLLQAAREADLAKVKKTLALEIINFKQPQSHETALHCAVASLHPKRKQVAELLLRKGANVNEKNKDFMTPLHVAAERAHNDVMEVLHKHGAKMNALDSLGQTALHRAALAGHLQTCRLLLSYGSDPSIISLQGFTAAQMGNEAVQQILSESTPMRTSDVDYRLLEASKAGDLETVKQLCSPQNVNCRDLEGRHSTPLHFAAGYNRVSVVEYLLHHGADVHAKDKGGLVPLHNACSYGHYEVAELLVRHGASVNVADLWKFTPLHEAAAKGKYEICKLLLKHGADPTKKNRDGNTPLDLVKEGDTDIQDLLRGDAALLDAAKKGCLARVQKLCTPENINCRDTQGRNSTPLHLAAGYNNLEVAEYLLEHGADVNAQDKGGLIPLHNAASYGHVDIAALLIKYNTCVNATDKWAFTPLHEAAQKGRTQLCALLLAHGADPTMKNQEGQTPLDLATADDIRALLIDAMPPEALPTCFKPQATVVSASLISPASTPSCLSAASSIDNLTGPLTDLAVGGASNAGDGAAGAERKEGEVAGLDMNISQFLKSLGLEHLRDIFETEQITLDVLADMGHEELKEIGINAYGHRHKLIKGVERLLGGQQGTNPYLTFHCVNQGTILLDLAPEDKEYQSVEEEMQSTIREHRDGGNAGGIFNRYNVIRIQKVVNKKLRERFCHRQKEVSEENHNHHNERMLFHGSPFINAIIHKGFDERHAYIGGMFGAGIYFAENSSKSNQYVYGIGGGTGCPTHKDRSCYICHRQMLFCRVTLGKSFLQFSTMKMAHAPPGHHSVIGRPSVNGLAYAEYVIYRGEQAYPEYLITYQIMKPEAPSQTATAAEQKT |
